# Results reported in paper doi:10.1101/2025.08.26.672471.
# Results are given in words; binding and its absence hold for the method and conditions named. In cells and extracts the contact can be indirect. A yes stands for co-enrichment or nearness to the bait. Other partners may have been found.
# T1: collagen receptor DDR2 (mouse (endogenous in MB49)) (UniProt Q62371)
# T1 sequence: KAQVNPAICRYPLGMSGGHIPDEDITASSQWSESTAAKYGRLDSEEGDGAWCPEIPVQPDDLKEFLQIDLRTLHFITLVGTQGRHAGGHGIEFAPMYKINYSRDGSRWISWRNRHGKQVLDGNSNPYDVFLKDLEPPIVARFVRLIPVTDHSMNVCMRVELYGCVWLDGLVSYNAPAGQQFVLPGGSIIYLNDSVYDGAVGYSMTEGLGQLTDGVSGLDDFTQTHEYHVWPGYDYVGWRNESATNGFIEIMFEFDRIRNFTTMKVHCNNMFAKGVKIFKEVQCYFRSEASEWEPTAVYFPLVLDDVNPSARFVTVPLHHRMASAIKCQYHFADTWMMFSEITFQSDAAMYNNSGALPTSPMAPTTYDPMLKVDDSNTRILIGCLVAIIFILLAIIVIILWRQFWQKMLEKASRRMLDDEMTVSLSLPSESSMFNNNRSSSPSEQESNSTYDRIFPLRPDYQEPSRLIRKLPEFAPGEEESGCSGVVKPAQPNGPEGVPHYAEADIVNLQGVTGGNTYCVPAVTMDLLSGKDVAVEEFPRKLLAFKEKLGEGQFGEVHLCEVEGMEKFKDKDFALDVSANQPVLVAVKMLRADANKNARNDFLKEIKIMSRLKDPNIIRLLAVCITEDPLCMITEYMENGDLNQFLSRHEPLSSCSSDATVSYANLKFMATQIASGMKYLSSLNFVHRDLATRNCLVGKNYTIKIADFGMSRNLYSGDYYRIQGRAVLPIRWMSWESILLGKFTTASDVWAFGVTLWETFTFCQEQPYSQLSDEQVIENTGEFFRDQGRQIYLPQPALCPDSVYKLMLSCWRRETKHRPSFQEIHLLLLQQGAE
# B1: Mdh2 (enzyme, UniProt P08249 25-338)
# chain: AKVAVLGASGGIGQPLSLLLKNSPLVSRLTLYDIAHTPGVAADLSHIETRANVKGYLGPEQLPDCLKGCDVVVIPAGVPRKPGMTRDDLFNTNATIVATLTAACAQHCPEAMVCIIANPVNSTIPITAEVFKKHGVYNPNKIFGVTTLDIVRANTFVAELKGLDPARVNVPVIGGHAGKTIIPLISQCTPKVDFPQDQLATLTGRIQEAGTEVVKAKAGAGSATLSMAYAGARFVFSLVDAMNGKEGVVECSFVQSKETECTYFSTPLLLGKKGLEKNLGIGKITPFEEKMIAEAIPELKASIKKGEDFVKNMK
# B2: G6pc1 (enzyme, UniProt P35576 1-357)
# chain: MEEGMNILHDFGIQSTRYLQVNYQDSQDWFILVSVIADLRNAFYVLFPIWFHLKETVGINLLWVAVVGDWFNLVFKWILFGQRPYWWVLDTDYYSNSSVPIIKQFPVTCETGPGSPSGHAMGAAGVYYVMVTSTLAIFRGKKKPTYGFRCLNVILWLGFWAVQLNVCLSRIYLAAHFPHQVVAGVLSGIAVAETFSHIRGIYNASLRKYCLITIFLFGFALGFYLLLKGLGVDLLWTLEKAKRWCERPEWVHLDTTPFASLFKNLGTLLGLGLALNSSMYRKSCKGELSKLLPFRFACIVASLVLLHLFDSLKPPSQVELIFYILSFCKSATVPFASVSLIPYCLARILGQTHKKSL
# B3: Pgam1 (enzyme, UniProt Q9DBJ1 1-254)
# chain: MAAYKLVLIRHGESAWNLENRFSGWYDADLSPAGHEEAKRGGQALRDAGYEFDICFTSVQKRAIRTLWTVLDAIDQMWLPVVRTWRLNERHYGGLTGLNKAETAAKHGEAQVKIWRRSYDVPPPPMEPDHPFYSNISKDRRYADLTEDQLPSCESLKDTIARALPFWNEEIVPQIKEGKRVLIAAHGNSLRGIVKHLEGLSEEAIMELNLPTGIPIVYELDKNLKPIKPMQFLGDEETVRKAMEAVAAQGKVKK
# Target: T1, collagen receptor DDR2 (mouse (endogenous in MB49))
# Experiment: affinity purification with mass spectrometry
row,binding,Binder
1,binds,B1
2,binds,B2
3,binds,B3
